Results are given in words; binding and its absence hold for the method and conditions named. In cells and extracts the contact can be indirect. Binding calls can cover weak binding; strength is not graded here.
T1: Tomato mosaic virus 30-kDa movement protein (Tomato mosaic virus) (UniProt P69513)
T1 sequence: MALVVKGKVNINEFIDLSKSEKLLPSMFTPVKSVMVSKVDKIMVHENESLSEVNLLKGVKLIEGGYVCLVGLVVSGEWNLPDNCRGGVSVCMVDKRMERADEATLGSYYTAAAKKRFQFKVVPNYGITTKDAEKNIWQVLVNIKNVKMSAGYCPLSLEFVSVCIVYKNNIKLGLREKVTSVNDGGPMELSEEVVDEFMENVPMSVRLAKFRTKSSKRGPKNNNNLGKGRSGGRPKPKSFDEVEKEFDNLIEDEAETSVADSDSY

B1: Tomato mosaic virus 30-kDa movement protein (protein, UniProt P69513 1-264)
chain: T1 sequence

Experiments:
[1] = target: T1, Tomato mosaic virus 30-kDa movement protein (Tomato mosaic virus); assay: split reporter; BiFC with N-terminal (nV) and C-terminal (cV) fragments of Venus fused to the C-terminal end of the target proteins (pGWnV3 and pGWcV plasmids); N. benthamiana leaves bombarded, Venus fluorescence seen at 24 h post-bombardment by confocal laser microscopy; MP-nV + MP-cV and 126K-nV + 126K-cV also co-expressed with NtREM-DsRed; some samples stained with aniline blue
[2] = target: Nt(sNN)REM1.2 (tobacco remorin, NtREM1.2 homolog from Nicotiana tabacum cv. Samsun NN) (Nicotiana tabacum cv. Samsun NN); assay: as above

Row | Molecule | binding [1] | binding [2]
1 | Nt(sNN)REM1.2 (tobacco remorin, NtREM1.2 homolog from Nicotiana tabacum cv. Samsun NN) | binds | –
2 | B1 | – | binds

— PMC5962775
